Data from PMC2859380.
Results are given in words; binding and its absence hold for the method and conditions named. Binding seen in cells or lysates may run through a third protein. Some entries that bind do so weakly or less than the wild type.

T1: MED4 (Drosophila melanogaster) (UniProt Q9VS38)
T1 sequence: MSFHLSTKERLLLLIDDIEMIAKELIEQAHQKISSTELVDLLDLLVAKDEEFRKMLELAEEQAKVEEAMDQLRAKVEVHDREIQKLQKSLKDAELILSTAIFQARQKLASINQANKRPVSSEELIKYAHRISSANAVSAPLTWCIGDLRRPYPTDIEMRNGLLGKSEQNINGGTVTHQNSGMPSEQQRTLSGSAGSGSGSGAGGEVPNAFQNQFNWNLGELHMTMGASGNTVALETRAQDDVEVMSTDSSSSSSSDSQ

T2: MED28 (Drosophila melanogaster) (UniProt Q9VBQ9)
T2 sequence: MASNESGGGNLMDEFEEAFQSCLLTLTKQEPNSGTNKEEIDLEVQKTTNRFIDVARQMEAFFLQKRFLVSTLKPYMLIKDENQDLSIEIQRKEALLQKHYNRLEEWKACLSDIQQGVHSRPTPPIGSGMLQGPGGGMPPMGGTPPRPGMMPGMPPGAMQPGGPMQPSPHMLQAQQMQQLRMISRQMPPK

T3: MED26 (Drosophila melanogaster) (UniProt Q9V4F9)
T3 sequence: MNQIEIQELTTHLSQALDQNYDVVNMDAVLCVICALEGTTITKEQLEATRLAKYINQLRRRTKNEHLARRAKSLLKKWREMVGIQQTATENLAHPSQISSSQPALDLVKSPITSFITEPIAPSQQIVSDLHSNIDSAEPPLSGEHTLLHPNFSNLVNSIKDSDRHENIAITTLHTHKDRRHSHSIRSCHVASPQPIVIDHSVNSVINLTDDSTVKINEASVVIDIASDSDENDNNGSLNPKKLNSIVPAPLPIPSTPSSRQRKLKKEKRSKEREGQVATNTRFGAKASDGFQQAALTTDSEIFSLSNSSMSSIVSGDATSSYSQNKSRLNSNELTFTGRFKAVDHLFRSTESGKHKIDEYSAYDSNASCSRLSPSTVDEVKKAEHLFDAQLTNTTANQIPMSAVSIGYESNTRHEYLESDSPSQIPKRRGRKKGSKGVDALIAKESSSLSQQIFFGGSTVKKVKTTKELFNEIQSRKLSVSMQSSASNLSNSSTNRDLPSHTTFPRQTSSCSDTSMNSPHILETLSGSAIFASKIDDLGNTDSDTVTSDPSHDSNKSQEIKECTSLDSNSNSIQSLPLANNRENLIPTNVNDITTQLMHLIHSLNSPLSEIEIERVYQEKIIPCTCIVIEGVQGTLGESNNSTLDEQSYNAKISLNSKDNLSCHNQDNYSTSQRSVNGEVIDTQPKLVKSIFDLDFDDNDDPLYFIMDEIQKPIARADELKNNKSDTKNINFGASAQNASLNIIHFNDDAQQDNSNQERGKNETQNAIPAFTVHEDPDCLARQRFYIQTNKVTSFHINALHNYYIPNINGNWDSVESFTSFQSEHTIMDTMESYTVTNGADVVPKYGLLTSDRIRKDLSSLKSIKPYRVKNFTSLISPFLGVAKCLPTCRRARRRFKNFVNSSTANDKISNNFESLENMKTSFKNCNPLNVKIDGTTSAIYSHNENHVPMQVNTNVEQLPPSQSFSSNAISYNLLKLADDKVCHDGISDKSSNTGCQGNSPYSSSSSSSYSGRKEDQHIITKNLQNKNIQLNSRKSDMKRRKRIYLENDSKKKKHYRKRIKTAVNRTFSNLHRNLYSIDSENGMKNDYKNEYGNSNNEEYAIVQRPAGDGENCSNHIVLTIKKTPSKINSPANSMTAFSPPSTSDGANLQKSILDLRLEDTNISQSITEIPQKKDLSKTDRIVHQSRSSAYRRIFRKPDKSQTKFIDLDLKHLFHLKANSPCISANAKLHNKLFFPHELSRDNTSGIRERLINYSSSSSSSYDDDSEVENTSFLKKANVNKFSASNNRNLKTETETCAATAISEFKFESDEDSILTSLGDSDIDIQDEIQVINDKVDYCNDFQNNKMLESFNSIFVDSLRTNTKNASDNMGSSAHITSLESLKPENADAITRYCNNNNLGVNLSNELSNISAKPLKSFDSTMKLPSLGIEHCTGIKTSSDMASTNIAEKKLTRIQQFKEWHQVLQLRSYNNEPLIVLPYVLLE

B1: MED26 (protein, UniProt Q9V4F9 1-1483)
chain: T3 sequence
B2: ix (protein, UniProt Q7KBL8 1-188)
chain: MNPNMNMMPMSGPQMMQVMQSSPSGPPGPVQHQQQQPPQPLQQQQQAEKLDNISRVKSLLGPLRESMFLTIRSSAFALQQNNLADNLKRDTGAHHVPRFDKHLEDFYACCDQIEIHLKTAMQCLQQQNSSNHYLPGPVTPMRMETFMPDNAGPISYPTYLNTVRVHIQSAKDIHDTLISAAQNISQAD
B3: MED17 (protein, UniProt Q9VEC1 1-642)
chain: MSNSVNISVETTCENQIREIGYDGTELYQPPPTLSESLAKCAARIDFSKTSLDDLKKEEKSAAAAADEDKDATQFQESLWPWDAVRNKLKDALTEICVLSDVISIAKDKRYLVLDPLLEEADDTKPIVQVYSRKKAISQAAQVLLSGAERLRNAHSEQRNRNVSDFHIELLRLRQNWRLKKVSNAIIGDLSYRTAGSKFGMSGTFEVTKAEETGDEDTASSSNSSSSVSGNNGMQLKASSALRVIVPAELQGVAYIKVITQKDQEDLCTAQLNLMGHGPNITAQVGVWQKTLEFAQNVLFCKELFAQLAREAIQLQAPIPHVVIGNQIRATLLPNIQLIISLCHSTTFDSSQPAPINDHDHVLEHSLHQLLREVHYKNSHHPFPHPASAPLGPTKKRMLAGPMAADRETLLDMTKSQTILEQIIAQAQHIFMRKRTQYVLDTLARDVKDPQIVSHWNAMNSPTMSCVKINIVTHGYDAIGRTSLVIHVKERSLKCICRDGRVMRLSYEPQELRDLILCQINSHQISCLISLARCMSWTVLSNSNHLGIGKVEPLGNASSCLLASPNSDRMIAVQIRCDPQIDVKVYIARSPRQDFFPSPLVPEKLWENLGGTFKEVRFDKIEGKSFLNKMEFLMASLTSNTA
B4: MED6 (protein, UniProt Q8MSX2 1-249)
chain: MASRQMTNDHLRLSWHDTQMMATLSPQTVMDYFCRKSNPFYDHMCNNETVRMQRLGPEHLHNMIGLEYILLHVAEPILYVIRKQHRHNPSEATPIADYYIIGGTVYKAPDLANVINSRILNTVVNLQSAFEEASSYARYHPNKGYTWDFSSNKVFSDRSKSDKKDANSAKDENSGTLFQKQRVDMLLAELLRKFPPPIPPMLQNLQQPPPAGDDLNTARNASEMNNATGPLDIKTEGVDMKPPPEKKSK

How the values were obtained:
Assay in all cases: co-IP; pairs tagged with FLAG or HA, co-expressed in Kc167 cells; lysate in radioimmunoprecipitation assay buffer (50 mM Tris pH 7.4, 150 mM NaCl, 0.1% SDS, 0.5% sodium deoxycholate, 1% NP40); immunoprecipitated with anti-FLAG, membranes probed with anti-HA, stripped, probed with anti-FLAG
[1] = molecular target: T1, MED4 (Drosophila melanogaster)
[2] = molecular target: T2, MED28 (Drosophila melanogaster)
[3] = molecular target: T3, MED26 (Drosophila melanogaster)

Binder	binding [3]	also measured
B1		binding [1]: binds
B2		binding [2]: binds
B3	binds	
B4	no binding	
